The values that follow come from PubChem BioAssay AID2685 (National Center for Advancing Translational Sciences (NCATS), 2010).

This experiment can be described thus: qHTS Assay for Lipid Storage Modulators in Drosophila S3 Cells.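 As to cell number change: cells counted by Cell Tracker Red CMTPX staining in the red channel.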 The note with it: BODIPY lipid droplet fluorescence, 18-24 h; for cell number change: measured here: cell count max response, cells fed with added oleic acid. In short, it runs like this: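 Laser-scanning cytometry quantifies lipid droplet accumulation (500–530 nm total intensity; droplet/cell object ratio) in oleic acid-fed (400 uM added) Drosophila S3 cells treated with a concentration series. 20 uM Triacsin C defined 100% inhibition.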

[1] abbreviates: measured here: lipid fluorescence (Fed channel) AC50, cells fed with added oleic acid.
[2] abbreviates: measured here: cell number channel AC50, cells fed with added oleic acid.

The structures appear in SMILES notation. The list shows a part of the results. The main result of the screen is listed elsewhere. These columns were measured beside it and carry no call. Most of these compounds were active or inconclusive in the main read-out, so they are no random draw. Potencies come from curve fits of mixed quality, noted in brackets.

As to `CC(=O)Nc1cccc2c1C(=O)NC2=O`, the cell number change is -20.5%. For the same compound, under setting [1], the AC50 was 25.9 µM [falling, partial curve].
As for `O=C(CCNC(=O)c1ccc(Cl)cc1)NCc1ccccc1Cl`, the cell number change is 5.09%.
Regarding `Cc1cc(C)nc(N/N=C/C2=C(N3CCOCC3)C(=C\c3ccc(Cl)cc3)/CC2)n1`, the cell number change stood at 1.34%. For the same compound, the AC50 under setting [2] was 0.651 µM [falling, full curve, poor fit]. Also, the AC50 under setting [1] was 0.146 µM [rising, full curve, poor fit].
With `O=C(NCC(c1cccnc1)N1CCN(c2ccccc2)CC1)c1ccc2c(c1)OCO2` (configuration not stated), the AC50 is 0.164 µM [rising, full curve] under setting [2] and 0.461 µM [rising, full curve] under setting [1].
Regarding `CC(C)(C)NC(=O)CN(Cc1cccs1)C(=O)CCN1CCc2ccccc21`, the cell number change is -33.3%. Also, the half-maximal activity concentration (AC50) under setting [2] was 29.1 µM [falling, single point]. The AC50 under setting [1] was 16.4 µM [falling, single point].
On to `O=C(CN1CCN(c2ccccc2F)CC1)c1c[nH]c2ccccc12`, for which the cell number change is -24%. The concentration at half-maximal activity (AC50) under setting [1] is 29.1 µM [falling, single point].
`CCc1ccc(NC(=S)Nc2ccc(S(=O)(=O)Nc3ncccn3)cc2)cc1`: the cell number change is -19.6%. Under setting [1], the concentration at half-maximal activity (AC50) was 4.11 µM [falling, full curve].
Turning to `Cc1ccc(C(=O)C(C)OC(=O)Cc2n[nH]c(=O)c3ccccc23)cc1C` (configuration not stated), the cell number change worked out at 40.1%. Under setting [2], the AC50 was 14.6 µM [rising, partial curve, poor fit]. The AC50 under setting [1] is 2.59 µM [rising, partial curve, poor fit].
In the case of `Nc1nc(N)n(-c2ccccc2)c(=Nc2ccccc2)n1`, the cell number change is 12.5%.
`CC(C)CNC(=O)C(=O)NCCC1CCCCN1S(=O)(=O)c1cccs1` (configuration not stated): the cell number change worked out at 165%. The AC50 under setting [2] was 23.1 µM [rising, partial curve]. The AC50 under setting [1] is 2.91 µM [falling, single point].
In the case of `COc1ccc(CNC(=S)N/N=C/c2ccc(O)c(OC)c2)cc1`, the AC50 under setting [1] is 25.9 µM [rising, single point].
Consider `CCOC(=O)C1=C(C)N(CCCCCC(=O)O)C(=O)NC1c1ccc(Cl)cc1` (configuration not stated), for which the cell number change amounted to 25.1%.
On the same count and under the same terms, under `COc1ccc(NC(=O)c2c(N)no[n+]2[O-])cc1` stands 90.3%.
Regarding `CCn1ncc(Br)c1C(=O)Nc1cc(C(=O)OC)ccc1C(=O)OC`, the cell number change is -13.1%. In addition, the AC50 under setting [1] was 2.91 µM [rising, full curve, poor fit].
Consider `COCCN(C(=S)Nc1cc(C)ccc1C)C(C)c1cccnc1` (configuration not stated), for which the cell number change is 11.3%. Under setting [1], the half-maximal activity concentration (AC50) was 29.1 µM [rising, single point].
With `O=C(N/N=C/c1ccc(OC(F)F)cc1)C1=COCCO1`, the cell number change was -17.1%.
As to `CCOC(=O)c1sc2nc(CC(C)C)c3c(c2c1N)CCC3`, the cell number change is 183%. In addition, the AC50 under setting [2] is 29.1 µM [rising, single point].
Consider `Cc1nc(-c2ccccc2)ccc1C(=O)O`, for which the cell number change is -14.4%. Also, under setting [1], the concentration at half-maximal activity (AC50) was 20.6 µM [falling, single point].
Turning to `CN(C(=O)COC(=O)c1cccc(S(=O)(=O)N(C)c2ccccc2)c1)C1CCCCC1`, the cell number change was -16.5%.
Consider `Cc1ccc(C)c(/C=C2\N=C(c3ccccc3F)OC2=O)c1`, for which the cell number change was -22.8%. The AC50 under setting [1] is 23.1 µM [falling, single point].
Take `CC(=O)Cn1c(=O)oc2ccccc21`: the cell number change is -15.2%. Further, the AC50 under setting [1] was 0.0184 µM [falling, full curve].
On to `CCC(C(=O)NCCc1c[nH]c2cc(OC)ccc12)c1ccccc1` (configuration not stated), for which the cell number change stood at 75.4%. In addition, the AC50 under setting [2] is 16.4 µM [rising, partial curve].
Turning to `Cc1cc(NS(=O)(=O)c2ccc(NC(=O)C(C)Oc3ccccc3Cl)cc2)no1` (configuration not stated), the cell number change came out at 14%.
For the compound `CCOC(=O)C1CCCN(C(=O)CCCn2nc(C)n3c(cc4sccc43)c2=O)C1` (configuration not stated), the cell number change came out at 1.45%.
On to `Cc1ccc(-c2nc3cc(N)ccc3o2)cc1`, for which the cell number change was found to be 114%. The half-maximal activity concentration (AC50) under setting [2] was 2.59 µM [rising, full curve]. For the same compound, under setting [1], the AC50 is 1.84 µM [rising, full curve].
Regarding `O=C(c1ccco1)N1CCN(c2nc(C3CC3)nc3c2nnn3Cc2ccccc2Cl)CC1`, the cell number change was -21%. Further, the AC50 under setting [1] is 29.1 µM [falling, single point].
On to `COC(=O)c1cc2c(ccn2-c2ccc(F)cc2)n1CC(=O)OC(C)C`, for which the cell number change is -20.1%. Further, under setting [1], the AC50 was 10.3 µM [falling, partial curve].
With `Cc1nc2cc(-c3sccc3-n3cccc3)nn2c(C)c1C`, under setting [1], the AC50 is 8.2 µM [rising, partial curve].
For `O=C(CCCN1C(=O)c2cccnc2Oc2ccc(Cl)cc21)N1CCCCC1`, the cell number change was -13.1%. Under setting [2], the AC50 was 0.00461 µM [falling, full curve, poor fit]. Moreover, the AC50 under setting [1] was 0.58 µM [falling, single point].
Consider `Cc1ccc(CN2CCN(CC(=O)NC(C)c3ccc4c(c3)OCCO4)C2=O)cc1` (configuration not stated), for which the cell number change was -15%. Besides, the AC50 under setting [1] was 20.6 µM [falling, single point].
As to `O=C(c1cc(COc2ccc(F)cc2Cl)on1)N1CCCCCCC1`, the AC50 under setting [1] is 0.58 µM [rising, single point].
Consider `COc1ccc(S(=O)(=O)NCCc2nnc3ccc(SCc4cccnc4)nn23)cc1`, for which the cell number change amounted to 13.4%. The AC50 under setting [1] was 3.26 µM [rising, single point].
As to `CCCOC(=O)c1c(N)sc2c1CCC2`, the cell number change is -16.5%. In addition, under setting [1], the AC50 is 29.1 µM [rising, single point].
Regarding `Cc1ccc(NC2CCCN(C(=O)CCc3ccncc3)C2)cc1C` (configuration not stated), the cell number change came to 12.4%.
Take `COc1cccc(-c2noc(-c3ccc(Cl)nc3)n2)c1`: the cell number change stood at 24.3%. Under setting [2], the AC50 was 4.11 µM [rising, single point]. Besides, under setting [1], the AC50 is 2.59 µM [rising, partial curve].
Take `O=C(NCc1cccc(C(F)(F)F)c1)c1cccc(Cl)c1Cl`: the cell number change came to 48.4%. Besides, the AC50 under setting [2] was 29.1 µM [rising, single point]. In addition, the AC50 under setting [1] was 1.64 µM [falling, partial curve, poor fit].
Take `CCCCCN(C(=O)NC(=O)Nc1ccc(C)cc1)S(=O)(=O)c1ccccc1`: the cell number change is -44.1%. Further, the AC50 under setting [2] was 7.31 µM [falling, partial curve].
For `O=C1CS/C(=N\N=C\c2ccco2)N1c1ccccc1`, the cell number change is 2.46%.
Consider `O=C(Nc1ccccc1C(=O)N1CCCC1)c1cccc(S(=O)(=O)N2CCCCC2)c1`, for which the cell number change is 34.3%. Moreover, the concentration at half-maximal activity (AC50) under setting [2] is 9.2 µM [rising, single point].
Consider `Cc1nn(C)c(C)c1C1C(C#N)=C(N)Oc2n[nH]c(C)c21` (configuration not stated), for which the cell number change was -0.487%. Besides, under setting [1], the AC50 is 5.8 µM [rising, partial curve].
On to `O=C(NCc1cc(C(F)(F)F)cc(C(F)(F)F)c1)C1CC(c2c(Cl)cccc2Cl)=NO1` (configuration not stated), for which the cell number change is -22.7%. Further, under setting [1], the AC50 was 29.1 µM [falling, single point].
